Experimental data: publication PMC8193866
Results are given in words; binding and its absence hold for the method and conditions named.

Chains of the proteins cited; added tags and fusions are not shown.
UniProt Q9SRZ6: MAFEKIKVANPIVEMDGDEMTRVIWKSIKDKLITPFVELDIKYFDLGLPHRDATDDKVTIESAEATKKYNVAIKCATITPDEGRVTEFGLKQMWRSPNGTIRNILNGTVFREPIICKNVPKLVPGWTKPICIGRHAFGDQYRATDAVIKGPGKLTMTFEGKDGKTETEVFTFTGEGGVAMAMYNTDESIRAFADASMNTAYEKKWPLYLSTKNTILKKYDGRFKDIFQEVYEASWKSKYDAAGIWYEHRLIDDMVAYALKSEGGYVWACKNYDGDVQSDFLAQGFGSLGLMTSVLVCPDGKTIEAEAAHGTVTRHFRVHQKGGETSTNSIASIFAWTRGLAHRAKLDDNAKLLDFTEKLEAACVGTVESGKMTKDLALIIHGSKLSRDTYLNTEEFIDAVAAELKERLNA

Molecular target: T1, Brassinosteroid-insensitive 1 suppressor 1 (BRS1), yeast two-hybrid construct (Arabidopsis) (UniProt Q9M099)
T1 sequence: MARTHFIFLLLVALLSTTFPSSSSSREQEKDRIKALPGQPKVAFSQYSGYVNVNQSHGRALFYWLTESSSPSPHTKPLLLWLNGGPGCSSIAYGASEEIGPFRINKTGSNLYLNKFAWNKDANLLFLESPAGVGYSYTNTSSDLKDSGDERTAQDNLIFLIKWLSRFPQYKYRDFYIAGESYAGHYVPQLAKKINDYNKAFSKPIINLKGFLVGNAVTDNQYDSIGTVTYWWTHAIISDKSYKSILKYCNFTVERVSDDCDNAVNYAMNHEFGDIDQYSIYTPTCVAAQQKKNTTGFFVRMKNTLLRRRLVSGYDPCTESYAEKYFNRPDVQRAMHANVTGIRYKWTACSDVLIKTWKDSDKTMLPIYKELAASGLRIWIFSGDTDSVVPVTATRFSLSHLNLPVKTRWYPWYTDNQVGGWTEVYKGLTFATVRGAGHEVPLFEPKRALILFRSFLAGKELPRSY
Test: two-hybrid; yeast two-hybrid; no methods given

binding: no binding
Substance: cytosolic NADP+-dependent isocitrate dehydrogenase (cICDH), yeast two-hybrid construct (from UniProt Q9SRZ6 1-410) (enzyme)
